# Structures can show the parent of a compound that is named as a salt. The list shows a part of the results. Small differences around the control level are noise.
# Legend:
# Conditions in all cases: 5 µM; treatment: days 7-14 after plating, readout day 21
# [1] = system: hPSC-derived cortical neurons (WA09); assay: nucleus area z-score vs screen plate; higher = larger nuclei (more mature)
# [2] = system: hPSC-derived cortical neurons (WA09); assay: total neurite length per nucleus (MAP2) z-score; higher = more neurite growth
# [3] = system: hPSC-derived cortical neurons (WA09); assay: nucleus roundness z-score vs screen plate; higher = rounder nuclei (more mature)
# [4] = system: hPSC-derived cortical neurons (WA09); assay: KCl-induced FOS+/EGR-1+ double-positive nuclei fraction z-score (KCl minus unstimulated); higher = stronger activity-induced IEG response
Compound,nucleus area z-score [1],total neurite length per nucleus (z-score) [2],nucleus roundness z-score [3],KCl-induced FOS+/EGR-1+ double-positive nuclei fraction z-score [4]
O=c1[nH]c(=O)n([C@H]2C[C@H](O)[C@@H](CO)O2)cc1I [Idoxuridine],-1.23,0.652,1.5,1.17
CNC(=O)c1ccc(N2C(=S)N(c3cnc(C#N)c(C(F)(F)F)c3)C(=O)C23CCC3)cc1F,0.802,-1.21,0.225,-0.0646
Cn1cc(-c2cnn3c(N)c(Br)c([C@@H]4CCCNC4)nc23)cn1,-0.312,1.94,2.44,1.91
CCOC(CN1CCN(CC(C)C(=O)c2ccccc2)CC1)c1ccccc1 (centres undefined) [Eprazinone 2HCl],0.0246,1.12,1.73,0.959
CC(C)CCn1c(CN2CCN(C(=O)C3CC3)CC2)nc2c1c(=O)n(C)c(=O)n2C,0.789,-0.898,-1.64,-0.0383
COc1nc(C)nc(Cl)c1NC1=NCCN1 [Moxonidine],-1.92,0.164,0.828,0.0171
COc1cc([C@@H]2c3cc4c(cc3[C@@H](O[C@@H]3O[C@@H]5CO[C@@H](c6cccs6)O[C@H]5[C@H](O)[C@H]3O)[C@H]3COC(=O)[C@H]23)OCO4)cc(OC)c1O [Teniposide],-5.39,-0.512,-0.0678,-1.9
CCc1cc(C(N)=S)ccn1 [Ethionamide],0.0195,1.68,0.644,0.529
"CNC(=O)[C@H](Cc1c[nH]c2ccccc12)NC(=O)[C@@H](CC(=O)NO)CC(C)C [Ilomastat (GM6001, Galardin)]",-0.757,-0.92,0.099,0.904
CN(Cc1cnc2nc(N)nc(N)c2n1)c1ccc(C(=O)N[C@@H](CCC(=O)O)C(=O)O)cc1 [Methotrexate],0.723,0.47,-0.373,-0.21
CC(C)(Cc1ccc2ccccc2c1)NC[C@@H](O)COc1cccc(Cl)c1C#N,-1.79,-1.05,-1.72,-1.27
C[C@@H]1C[C@H]2[C@@H]3C[C@H](F)C4=CC(=O)C=C[C@]4(C)[C@@]3(F)[C@@H](O)C[C@]2(C)[C@@]1(O)C(=O)CO [Flumethasone],0.258,0.26,0.0838,-0.338
OC(CCN1CCCC1)(c1ccccc1)C1CCCCC1 (centres undefined) [Procyclidine HCl],0.176,0.72,0.577,-0.42
CCc1c2c(nc3ccc(OC(=O)N4CCC(N5CCCCC5)CC4)cc13)-c1cc3c(c(=O)n1C2)COC(=O)[C@]3(O)CC [Irinotecan HCl Trihydrate],-0.0916,-0.861,-0.66,-0.811
C[C@H](Cn1cnc2c(N)ncnc21)OCP(=O)(O)O [Tenofovir],0.169,-0.0106,-0.352,0.0925
O=C1CN2Cc3c(ccc(Cl)c3Cl)N=C2N1 [Anagrelide HCl],-0.941,0.287,0.219,-1.02
CC(C)Oc1ccc(-c2c[nH]cc2CN(C)CCN)cc1,0.165,-0.853,0.067,-0.702
CCC1(c2c[nH]cn2)Cc2ccccc2C1 [Atipamezole],0.845,-0.453,0.322,1.36
CC#CCn1c(N2CCC[C@@H](N)C2)nc2c1c(=O)n(Cc1nc(C)c3ccccc3n1)c(=O)n2C [Linagliptin],0.367,0.884,0.631,0.715
C[S+](CC[C@H](N)C(=O)[O-])C[C@H]1O[C@@H](n2cnc3c(N)ncnc32)[C@H](O)[C@@H]1O (some centres undefined) [Ademetionine disulfate tosylate],0.736,0.171,0.0557,1.74
O=C(O)c1cc(=O)[nH]c(=O)[nH]1 [Orotic acid (6-Carboxyuracil)],1.4,0.21,0.309,1.17
CO[C@H]1C[C@@H]2CC[C@@H](C)[C@@](O)(O2)C(=O)C(=O)N2CCCC[C@H]2C(=O)O[C@H]([C@H](C)C[C@@H]2CC[C@@H](OCCO)[C@H](OC)C2)CC(=O)[C@H](C)/C=C(\C)[C@@H](O)[C@@H](OC)C(=O)[C@H](C)C[C@H](C)/C=C/C=C/C=C/1C [Everolimus (RAD001)],-3.07,-1.96,-4.92,-0.449
O=C(O)c1cc(O)c(O)c(O)c1 [Gallic acid],1.11,0.166,-0.00426,0.0496
Cc1cc(O)c2c(c1)C(=O)c1cc(O)cc(O)c1C2=O [Emodin],0.558,-0.595,0.498,-0.462
CNC(=O)c1cc(Oc2ccc(NC(=O)Nc3ccc(Cl)c(C(F)(F)F)c3)c(F)c2)ccn1 [Regorafenib (BAY 73-4506)],0.953,-0.0602,0.25,-0.182
NCCCCCNCC12CC3CC(CC(C3)C1)C2 [IEM 1754 dihydrobroMide],1.19,0.328,0.331,3.33

# Not a retest: two of the compounds above.
Compound,nucleus area z-score [1],total neurite length per nucleus (z-score) [2],nucleus roundness z-score [3],KCl-induced FOS+/EGR-1+ double-positive nuclei fraction z-score [4]
CC(C)Oc1ccc(-c2c[nH]cc2CN(C)CCN)cc1,0.165,-0.853,0.067,-0.702
CCC1(c2c[nH]cn2)Cc2ccccc2C1 [Atipamezole],0.845,-0.453,0.322,1.36
